Data from PMC5041093, “Acidic Residues Control the Dimerization of the N-terminal Domain of Black Widow Spiders’ Major Ampullate Spidroin 1” (Scientific Reports, 2016).
No constants are given. Whether binding was seen depends on the method and setting. Some entries that bind do so weakly or less than the wild type.

What was measured:
[1] = molecular target: amino-terminal domain of Latrodectus hesperus major ampullate spidroin 1, wildtype (Latrodectus hesperus) (UniProt A6YIY1); assay: SEC-MALS; 35.6 μM and 142.5 μM wtNRN1 at pH 7.2; monomer to dimer; both purified
[2] = molecular target: amino-terminal domain of Latrodectus hesperus major ampullate spidroin 1, wildtype (Latrodectus hesperus) (UniProt A6YIY1); assay: SEC-MALS; Superdex 200 10/300 GL, 20 mM sodium phosphate pH 7.2 or 6.0 with 300 mM NaCl, 71.2 μM protein injected; monomer to dimer; both purified

B1: amino-terminal domain of Latrodectus hesperus major ampullate spidroin 1, wildtype (domain or fragment)
chain: QANTPWSSKANADAFINSFISAASNTGSFSQDQMEDMSLIGNTLMAAMDNMGGRITPSKLQALDMAFASSVAEIAASEGGDLGVTTNAIADALTSAFYQTTGVVNSRFISEIRSLIGMFAQASANDVYASAGS
notes: non-repetitive amino-terminal domain (NRN1) of major ampullate spidroin 1 (MaSp1), Latrodectus hesperus; also called wtNRN1_(L.h.); NRN1_(L.h.); source: E. coli BL21 (DE3), purified (nickel-NTA, SEC)
In the case of B1, the binding [1] is reported as “binds” and the binding [2] is reported as “no binding (condition: with 300 mM NaCl)”.
